Some results were stated once for a whole list of compounds, not compound by compound.
Assays:
Type in all cases: in vivo
Bean Aphid (Aphis fabae) = assay: Bean aphid (Aphis fabae), nasturtium plant dip test; settings: 300 ppm; infested nasturtium plants dipped; determined after 3 days
[1] = test system: Cotton Aphid (Aphis gossypii), mixed life stages; assay: Cotton aphid (Aphis gossypii), mixed life stages, cotyledon dip test; settings: 300 ppm; infested cotton cotyledons dipped; determined after 5 days
Description: (§1) The active compounds were formulated in a mixture of 50 vol.-% acetone:50 vol.-% water. A nonionic surfactant (Kinetic®) was included in the solution at a volume of 0.01% v/v.
(§2) In the following tests, the formulated solutions of the active compounds were diluted to an active ingredient concentration of 300 ppm and the diluted solutions were applied in the below mentioned tests.
(§3) II.1 Cotton Aphid (Aphis gossypil), Mixed Life Stages • Cotton plants at the cotyledon stage were infested prior to treatment by placing a heavily infested leaf from the main aphid colony on top of each cotyledon. The aphids were allowed to transfer overnight and the host leaf was removed. The infested cotyledons were then dipped and agitated in the test solution for 3 seconds and allowed to dry in a fume hood. Test plants were maintained under fluorescent lighting in a 24-hr photoperiod at 25° C. and 20-40% relative humidity. Aphid mortality on the treated plants, relative to mortality on untreated check plants, was determined after 5 days. • In this test compounds each of examples 12 to 36, 38, 39, 40 and 41 at 300 ppm provided at least 90% mortality of cotton aphid (Aphis gossypii, mixed life stages) in comparison with untreated controls. II.2 Green Peach Aphid (Myzus persicae), Mixed Life Stages • Bell pepper plants at the first true-leaf stage were infested prior to treatment by placing heavily infested leaves from the main aphid colony on top of the treatment plants. The aphids were allowed to transfer overnight to accomplish an infestation of 30-40 aphids per plant and the host leaves were removed. The infested leaves of the test plants were then dipped and agitated in the test solution for 3 seconds and allowed to dry in a fume hood. Test plants were maintained under fluorescent lighting in a 24-hr photoperiod at 25° C. and 20-40% relative humidity. Aphid mortality on the treated plants, relative to mortality on untreated check plants, was determined after 5 days. • In this test compounds each of examples 12 to 36, 38, 39, 40 and 41 at 300 ppm provided at least 90% mortality of green peach aphidin comparison with untreated controls. II.3 Bean Aphid (Aphis fabae)

[2] = test system: Green Peach Aphid (Myzus persicae), mixed life stages; assay: Green peach aphid (Myzus persicae), mixed life stages, bell pepper leaf dip test; settings: 300 ppm; infested bell pepper leaves dipped; determined after 5 days
Description: as §1, §2, §3

CCNS(=O)(=O)c1cncc(C)c1C#N [Example 13]
at least 90%: mortality of bean aphid in comparison with untreated controls (Bean Aphid (Aphis fabae)) | mortality of cotton aphid in comparison with untreated controls [1] | mortality of green peach aphid in comparison with untreated controls [2]

CN(C)S(=O)(=O)c1cncc(Cl)c1C#N [Example 14]
at least 90%: mortality of bean aphid in comparison with untreated controls (Bean Aphid (Aphis fabae)) | mortality of cotton aphid in comparison with untreated controls [1] | mortality of green peach aphid in comparison with untreated controls [2]

CCN(CC)S(=O)(=O)c1cncc(Cl)c1C#N [Example 15]
at least 90%: mortality of bean aphid in comparison with untreated controls (Bean Aphid (Aphis fabae)) | mortality of cotton aphid in comparison with untreated controls [1] | mortality of green peach aphid in comparison with untreated controls [2]

CCN(C)S(=O)(=O)c1cncc(Cl)c1C#N [Example 16]
at least 90%: mortality of bean aphid in comparison with untreated controls (Bean Aphid (Aphis fabae)) | mortality of cotton aphid in comparison with untreated controls [1] | mortality of green peach aphid in comparison with untreated controls [2]

COCCNS(=O)(=O)c1cncc(Cl)c1C#N [Example 18]
at least 90%: mortality of bean aphid in comparison with untreated controls (Bean Aphid (Aphis fabae)) | mortality of cotton aphid in comparison with untreated controls [1] | mortality of green peach aphid in comparison with untreated controls [2]

N#Cc1c(Cl)cncc1S(N)(=O)=O [Example 19]
at least 90%: mortality of bean aphid in comparison with untreated controls (Bean Aphid (Aphis fabae)) | mortality of cotton aphid in comparison with untreated controls [1] | mortality of green peach aphid in comparison with untreated controls [2]

COc1cncc(S(=O)(=O)N(C)C)c1C#N [Example 20]
at least 90%: mortality of bean aphid in comparison with untreated controls (Bean Aphid (Aphis fabae)) | mortality of cotton aphid in comparison with untreated controls [1] | mortality of green peach aphid in comparison with untreated controls [2]

CCN(C)S(=O)(=O)c1cncc(OC)c1C#N [Example 22]
at least 90%: mortality of bean aphid in comparison with untreated controls (Bean Aphid (Aphis fabae)) | mortality of cotton aphid in comparison with untreated controls [1] | mortality of green peach aphid in comparison with untreated controls [2]

COc1cncc(S(=O)(=O)N(C)OC)c1C#N [Example 23]
at least 90%: mortality of bean aphid in comparison with untreated controls (Bean Aphid (Aphis fabae)) | mortality of cotton aphid in comparison with untreated controls [1] | mortality of green peach aphid in comparison with untreated controls [2]

COc1cncc(S(=O)(=O)N(C)C(C)=O)c1C#N [Example 24]
at least 90%: mortality of bean aphid in comparison with untreated controls (Bean Aphid (Aphis fabae)) | mortality of cotton aphid in comparison with untreated controls [1] | mortality of green peach aphid in comparison with untreated controls [2]

CCN(CC)S(=O)(=O)c1cncc(OC)c1C#N [Example 25]
at least 90%: mortality of bean aphid in comparison with untreated controls (Bean Aphid (Aphis fabae)) | mortality of cotton aphid in comparison with untreated controls [1] | mortality of green peach aphid in comparison with untreated controls [2]

CCNS(=O)(=O)c1cncc(OC)c1C#N [Example 27]
at least 90%: mortality of bean aphid in comparison with untreated controls (Bean Aphid (Aphis fabae)) | mortality of cotton aphid in comparison with untreated controls [1] | mortality of green peach aphid in comparison with untreated controls [2]

COc1cncc(S(=O)(=O)NC(C)C)c1C#N [Example 28]
at least 90%: mortality of bean aphid in comparison with untreated controls (Bean Aphid (Aphis fabae)) | mortality of cotton aphid in comparison with untreated controls [1] | mortality of green peach aphid in comparison with untreated controls [2]

C#CCNS(=O)(=O)c1cncc(OC)c1C#N [Example 30]
at least 90%: mortality of bean aphid in comparison with untreated controls (Bean Aphid (Aphis fabae)) | mortality of cotton aphid in comparison with untreated controls [1] | mortality of green peach aphid in comparison with untreated controls [2]

COc1cncc(S(=O)(=O)NCc2ccccc2)c1C#N [Example 31]
at least 90%: mortality of bean aphid in comparison with untreated controls (Bean Aphid (Aphis fabae)) | mortality of cotton aphid in comparison with untreated controls [1] | mortality of green peach aphid in comparison with untreated controls [2]

C=CCNS(=O)(=O)c1cncc(OC)c1C#N [Example 33]
at least 90%: mortality of bean aphid in comparison with untreated controls (Bean Aphid (Aphis fabae)) | mortality of cotton aphid in comparison with untreated controls [1] | mortality of green peach aphid in comparison with untreated controls [2]

C=CCN(C(C)=O)S(=O)(=O)c1cncc(OC)c1C#N [Example 34]
at least 90%: mortality of bean aphid in comparison with untreated controls (Bean Aphid (Aphis fabae)) | mortality of cotton aphid in comparison with untreated controls [1] | mortality of green peach aphid in comparison with untreated controls [2]

COc1cncc(S(=O)(=O)NC2CCCCC2)c1C#N [Example 35]
at least 90%: mortality of bean aphid in comparison with untreated controls (Bean Aphid (Aphis fabae)) | mortality of cotton aphid in comparison with untreated controls [1] | mortality of green peach aphid in comparison with untreated controls [2]

COc1cncc(S(=O)(=O)N2CCOCC2)c1C#N [Example 36]
at least 90%: mortality of bean aphid in comparison with untreated controls (Bean Aphid (Aphis fabae)) | mortality of cotton aphid in comparison with untreated controls [1] | mortality of green peach aphid in comparison with untreated controls [2]

C#CCN(C)S(=O)(=O)c1cncc(OC(F)F)c1C#N [Example 40]
at least 90%: mortality of bean aphid in comparison with untreated controls (Bean Aphid (Aphis fabae)) | mortality of cotton aphid in comparison with untreated controls [1] | mortality of green peach aphid in comparison with untreated controls [2]
